Source: patent US20220339270A1
These are yes or no findings as the source states them, for the method shown. Some entries that bind do so weakly or less than the wild type. For some assays here: Sequences can lack the tags named with a protein.

Protein sequences, listed by entry. Tags and fused reporters are not part of them. Lines headed by an entry give the natural chain unless they say otherwise; changes in a name come on top.
UniProt P10636: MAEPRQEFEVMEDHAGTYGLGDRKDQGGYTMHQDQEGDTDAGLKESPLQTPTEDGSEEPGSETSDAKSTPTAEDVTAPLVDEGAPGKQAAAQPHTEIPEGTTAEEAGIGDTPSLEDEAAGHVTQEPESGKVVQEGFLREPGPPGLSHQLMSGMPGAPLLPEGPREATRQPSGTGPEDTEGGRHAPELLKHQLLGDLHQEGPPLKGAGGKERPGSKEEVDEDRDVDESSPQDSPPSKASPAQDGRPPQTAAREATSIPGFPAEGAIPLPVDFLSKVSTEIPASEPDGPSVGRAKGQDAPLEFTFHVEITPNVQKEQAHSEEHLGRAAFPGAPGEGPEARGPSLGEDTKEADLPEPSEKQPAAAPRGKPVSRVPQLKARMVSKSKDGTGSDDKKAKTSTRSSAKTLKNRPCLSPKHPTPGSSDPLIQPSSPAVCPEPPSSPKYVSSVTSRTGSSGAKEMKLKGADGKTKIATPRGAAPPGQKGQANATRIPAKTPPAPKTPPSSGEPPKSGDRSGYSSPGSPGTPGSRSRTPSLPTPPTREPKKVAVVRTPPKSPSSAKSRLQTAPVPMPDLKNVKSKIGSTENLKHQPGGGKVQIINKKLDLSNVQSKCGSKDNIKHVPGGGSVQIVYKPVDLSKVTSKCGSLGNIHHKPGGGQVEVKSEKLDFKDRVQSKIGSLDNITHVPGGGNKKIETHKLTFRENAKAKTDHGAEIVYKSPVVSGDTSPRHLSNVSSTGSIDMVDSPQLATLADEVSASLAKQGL

B1: IPN002 antibody expressed from CAG-IPN002-HF.T2AL (TAU_ITR1) (antibody, V domains shown)
VH: EVHLVESGGALVKPGGSLKLSCAASGFSFSKYGMSWVRQTPDKRLEWVATISSSGSRTYYPDSVKGQFTISRDNAKNTLYLQMSSLKSEDTAMYYCSISWDGAMDYWGQGTSVTVSS
VL: DVLMTQTPLSLPVSLGDQASISCKSSQSIVHSNGNTYLEWYLQKPGQSPKLLVYKVSNRFSGVPDRFSGSGSGTDFTLKISRVEAEDLGTYYCFQGSLVPWAFGGGTKLEIK
B2: IPN002 antibody expressed from CB6-IPN002-HF.F2AL (TAU_ITR3) (antibody, V domains shown)
VH: EVHLVESGGALVKPGGSLKLSCAASGFSFSKYGMSWVRQTPDKRLEWVATISSSGSRTYYPDSVKGQFTISRDNAKNTLYLQMSSLKSEDTAMYYCSISWDGAMDYWGQGTSVTVSS
VL: DVLMTQTPLSLPVSLGDQASISCKSSQSIVHSNGNTYLEWYLQKPGQSPKLLVYKVSNRFSGVPDRFSGSGSGTDFTLKISRVEAEDLGTYYCFQGSLVPWAFGGGTKLEIK
B3: IPN002 antibody expressed from CAG-IPN002-LF2AH (TAU_ITR9) (antibody, V domains shown)
VH: EVHLVESGGALVKPGGSLKLSCAASGFSFSKYGMSWVRQTPDKRLEWVATISSSGSRTYYPDSVKGQFTISRDNAKNTLYLQMSSLKSEDTAMYYCSISWDGAMDYWGQGTSVTVSS
VL: DVLMTQTPLSLPVSLGDQASISCKSSQSIVHSNGNTYLEWYLQKPGQSPKLLVYKVSNRFSGVPDRFSGSGSGTDFTLKISRVEAEDLGTYYCFQGSLVPWAFGGGTKLEIK
B4: IPN002 antibody expressed from CB6-IPN002-HF.T2AL (TAU_ITR4) (antibody, V domains shown)
VH: EVHLVESGGALVKPGGSLKLSCAASGFSFSKYGMSWVRQTPDKRLEWVATISSSGSRTYYPDSVKGQFTISRDNAKNTLYLQMSSLKSEDTAMYYCSISWDGAMDYWGQGTSVTVSS
VL: DVLMTQTPLSLPVSLGDQASISCKSSQSIVHSNGNTYLEWYLQKPGQSPKLLVYKVSNRFSGVPDRFSGSGSGTDFTLKISRVEAEDLGTYYCFQGSLVPWAFGGGTKLEIK
B5: IPN002 antibody expressed from CB6-IPN002-LF2AH (TAU_ITR11) (antibody, V domains shown)
VH: EVHLVESGGALVKPGGSLKLSCAASGFSFSKYGMSWVRQTPDKRLEWVATISSSGSRTYYPDSVKGQFTISRDNAKNTLYLQMSSLKSEDTAMYYCSISWDGAMDYWGQGTSVTVSS
VL: DVLMTQTPLSLPVSLGDQASISCKSSQSIVHSNGNTYLEWYLQKPGQSPKLLVYKVSNRFSGVPDRFSGSGSGTDFTLKISRVEAEDLGTYYCFQGSLVPWAFGGGTKLEIK
B6: IPN002 antibody expressed from CB6-IPN002-LT2AH (TAU_ITR87) (antibody, V domains shown)
VH: EVHLVESGGALVKPGGSLKLSCAASGFSFSKYGMSWVRQTPDKRLEWVATISSSGSRTYYPDSVKGQFTISRDNAKNTLYLQMSSLKSEDTAMYYCSISWDGAMDYWGQGTSVTVSS
VL: DVLMTQTPLSLPVSLGDQASISCKSSQSIVHSNGNTYLEWYLQKPGQSPKLLVYKVSNRFSGVPDRFSGSGSGTDFTLKISRVEAEDLGTYYCFQGSLVPWAFGGGTKLEIK
B7: IPN002 antibody expressed from CAG-IPN002-HF.F2AL (TAU_ITR2) (antibody, V domains shown)
VH: EVHLVESGGALVKPGGSLKLSCAASGFSFSKYGMSWVRQTPDKRLEWVATISSSGSRTYYPDSVKGQFTISRDNAKNTLYLQMSSLKSEDTAMYYCSISWDGAMDYWGQGTSVTVSS
VL: DVLMTQTPLSLPVSLGDQASISCKSSQSIVHSNGNTYLEWYLQKPGQSPKLLVYKVSNRFSGVPDRFSGSGSGTDFTLKISRVEAEDLGTYYCFQGSLVPWAFGGGTKLEIK
B8: IPN002 antibody expressed from CAG-IPN002-LT2AH (TAU_ITR10) (antibody, V domains shown)
VH: EVHLVESGGALVKPGGSLKLSCAASGFSFSKYGMSWVRQTPDKRLEWVATISSSGSRTYYPDSVKGQFTISRDNAKNTLYLQMSSLKSEDTAMYYCSISWDGAMDYWGQGTSVTVSS
VL: DVLMTQTPLSLPVSLGDQASISCKSSQSIVHSNGNTYLEWYLQKPGQSPKLLVYKVSNRFSGVPDRFSGSGSGTDFTLKISRVEAEDLGTYYCFQGSLVPWAFGGGTKLEIK
B9: IPN002 scFv-HA expressed from TAU_ITR152 (CAG, LH, (G4S)3) (scFv)
scFv: DVLMTQTPLSLPVSLGDQASISCKSSQSIVHSNGNTYLEWYLQKPGQSPKLLVYKVSNRFSGVPDRFSGSGSGTDFTLKISRVEAEDLGTYYCFQGSLVPWAFGGGTKLEIKGGGGSGGGGSGGGGSEVHLVESGGALVKPGGSLKLSCAASGFSFSKYGMSWVRQTPDKRLEWVATISSSGSRTYYPDSVKGQFTISRDNAKNTLYLQMSSLKSEDTAMYYCSISWDGAMDYWGQGTSVTVSS
B10: IPN002 scFv-HA expressed from TAU_ITR155 (CAG, LH, (G4S)6) (scFv)
scFv: DVLMTQTPLSLPVSLGDQASISCKSSQSIVHSNGNTYLEWYLQKPGQSPKLLVYKVSNRFSGVPDRFSGSGSGTDFTLKISRVEAEDLGTYYCFQGSLVPWAFGGGTKLEIKGGGGSGGGGSGGGGSGGGGSGGGGSGGGGSEVHLVESGGALVKPGGSLKLSCAASGFSFSKYGMSWVRQTPDKRLEWVATISSSGSRTYYPDSVKGQFTISRDNAKNTLYLQMSSLKSEDTAMYYCSISWDGAMDYWGQGTSVTVSS
B11: IPN002 scFv-HA expressed from TAU_ITR139 (CAG, HL, (G4S)3) (scFv)
scFv: EVHLVESGGALVKPGGSLKLSCAASGFSFSKYGMSWVRQTPDKRLEWVATISSSGSRTYYPDSVKGQFTISRDNAKNTLYLQMSSLKSEDTAMYYCSISWDGAMDYWGQGTSVTVSSGGGGSGGGGSGGGGSDVLMTQTPLSLPVSLGDQASISCKSSQSIVHSNGNTYLEWYLQKPGQSPKLLVYKVSNRFSGVPDRFSGSGSGTDFTLKISRVEAEDLGTYYCFQGSLVPWAFGGGTKLEIK
B12: IPN002 scFv-HA expressed from TAU_ITR143 (CAG, HL, (G4S)8) (scFv)
scFv: EVHLVESGGALVKPGGSLKLSCAASGFSFSKYGMSWVRQTPDKRLEWVATISSSGSRTYYPDSVKGQFTISRDNAKNTLYLQMSSLKSEDTAMYYCSISWDGAMDYWGQGTSVTVSSGGGGSGGGGSGGGGSGGGGSGGGGSGGGGSGGGGSGGGGSDVLMTQTPLSLPVSLGDQASISCKSSQSIVHSNGNTYLEWYLQKPGQSPKLLVYKVSNRFSGVPDRFSGSGSGTDFTLKISRVEAEDLGTYYCFQGSLVPWAFGGGTKLEIK
B13: IPN002 scFv-HA expressed from TAU_ITR150 (CAG, LH, G4S) (scFv)
scFv: DVLMTQTPLSLPVSLGDQASISCKSSQSIVHSNGNTYLEWYLQKPGQSPKLLVYKVSNRFSGVPDRFSGSGSGTDFTLKISRVEAEDLGTYYCFQGSLVPWAFGGGTKLEIKGGGGSEVHLVESGGALVKPGGSLKLSCAASGFSFSKYGMSWVRQTPDKRLEWVATISSSGSRTYYPDSVKGQFTISRDNAKNTLYLQMSSLKSEDTAMYYCSISWDGAMDYWGQGTSVTVSS
B14: IPN002 scFv-HA expressed from TAU_ITR142 (CAG, HL, (G4S)6) (scFv)
scFv: EVHLVESGGALVKPGGSLKLSCAASGFSFSKYGMSWVRQTPDKRLEWVATISSSGSRTYYPDSVKGQFTISRDNAKNTLYLQMSSLKSEDTAMYYCSISWDGAMDYWGQGTSVTVSSGGGGSGGGGSGGGGSGGGGSGGGGSGGGGSDVLMTQTPLSLPVSLGDQASISCKSSQSIVHSNGNTYLEWYLQKPGQSPKLLVYKVSNRFSGVPDRFSGSGSGTDFTLKISRVEAEDLGTYYCFQGSLVPWAFGGGTKLEIK
B15: IPN002 scFv-HA expressed from TAU_ITR140 (CAG, HL, (G4S)4) (scFv)
scFv: EVHLVESGGALVKPGGSLKLSCAASGFSFSKYGMSWVRQTPDKRLEWVATISSSGSRTYYPDSVKGQFTISRDNAKNTLYLQMSSLKSEDTAMYYCSISWDGAMDYWGQGTSVTVSSGGGGSGGGGSGGGGSGGGGSDVLMTQTPLSLPVSLGDQASISCKSSQSIVHSNGNTYLEWYLQKPGQSPKLLVYKVSNRFSGVPDRFSGSGSGTDFTLKISRVEAEDLGTYYCFQGSLVPWAFGGGTKLEIK
B16: IPN002 scFv-HA expressed from TAU_ITR141 (CAG, HL, (G4S)5) (scFv)
scFv: EVHLVESGGALVKPGGSLKLSCAASGFSFSKYGMSWVRQTPDKRLEWVATISSSGSRTYYPDSVKGQFTISRDNAKNTLYLQMSSLKSEDTAMYYCSISWDGAMDYWGQGTSVTVSSGGGGSGGGGSGGGGSGGGGSGGGGSDVLMTQTPLSLPVSLGDQASISCKSSQSIVHSNGNTYLEWYLQKPGQSPKLLVYKVSNRFSGVPDRFSGSGSGTDFTLKISRVEAEDLGTYYCFQGSLVPWAFGGGTKLEIK
B17: IPN002 scFv-HA expressed from TAU_ITR137 (CAG, HL, G4S) (scFv)
scFv: EVHLVESGGALVKPGGSLKLSCAASGFSFSKYGMSWVRQTPDKRLEWVATISSSGSRTYYPDSVKGQFTISRDNAKNTLYLQMSSLKSEDTAMYYCSISWDGAMDYWGQGTSVTVSSGGGGSDVLMTQTPLSLPVSLGDQASISCKSSQSIVHSNGNTYLEWYLQKPGQSPKLLVYKVSNRFSGVPDRFSGSGSGTDFTLKISRVEAEDLGTYYCFQGSLVPWAFGGGTKLEIK
B18: IPN002 scFv-HA expressed from TAU_ITR154 (CAG, LH, (G4S)5) (scFv)
scFv: DVLMTQTPLSLPVSLGDQASISCKSSQSIVHSNGNTYLEWYLQKPGQSPKLLVYKVSNRFSGVPDRFSGSGSGTDFTLKISRVEAEDLGTYYCFQGSLVPWAFGGGTKLEIKGGGGSGGGGSGGGGSGGGGSGGGGSEVHLVESGGALVKPGGSLKLSCAASGFSFSKYGMSWVRQTPDKRLEWVATISSSGSRTYYPDSVKGQFTISRDNAKNTLYLQMSSLKSEDTAMYYCSISWDGAMDYWGQGTSVTVSS
B19: IPN002 scFv-HA expressed from TAU_ITR151 (CAG, LH, (G4S)2) (scFv)
scFv: DVLMTQTPLSLPVSLGDQASISCKSSQSIVHSNGNTYLEWYLQKPGQSPKLLVYKVSNRFSGVPDRFSGSGSGTDFTLKISRVEAEDLGTYYCFQGSLVPWAFGGGTKLEIKGGGGSGGGGSEVHLVESGGALVKPGGSLKLSCAASGFSFSKYGMSWVRQTPDKRLEWVATISSSGSRTYYPDSVKGQFTISRDNAKNTLYLQMSSLKSEDTAMYYCSISWDGAMDYWGQGTSVTVSS
B20: IPN002 scFv-HA expressed from TAU_ITR153 (CAG, LH, (G4S)4) (scFv)
scFv: DVLMTQTPLSLPVSLGDQASISCKSSQSIVHSNGNTYLEWYLQKPGQSPKLLVYKVSNRFSGVPDRFSGSGSGTDFTLKISRVEAEDLGTYYCFQGSLVPWAFGGGTKLEIKGGGGSGGGGSGGGGSGGGGSEVHLVESGGALVKPGGSLKLSCAASGFSFSKYGMSWVRQTPDKRLEWVATISSSGSRTYYPDSVKGQFTISRDNAKNTLYLQMSSLKSEDTAMYYCSISWDGAMDYWGQGTSVTVSS

Biological target: phospho-tau (antigen of the Phospho-tau ELISA of Example 8) (UniProt P10636)
Experiment: Phospho-tau ELISA, ExpiCHO supernatant

Question: For B1, which binding is on record?
Answer: binds

Question: With B2 as the binder, how does the binding read?
Answer: binds

Question: Which binding does the source give for B3 here?
Answer: binds

Question: How did the binding turn out when B4 was run?
Answer: binds

Question: Which binding does the source give for B5 here?
Answer: binds

Question: How did the binding turn out when B6 was run?
Answer: binds

Question: For B7, which binding is on record?
Answer: binds

Question: For B8, which binding is on record?
Answer: binds

Biological target: extracellular tau in the form of paired helical filaments (ePHF) (UniProt P10636)
Experiment: PHF tau ELISA, 293 cell supernatant

Question: For B9, which binding is on record?
Answer: binds

Question: Which binding does the source give for B10 here?
Answer: binds

Question: Which binding does the source give for B11 here?
Answer: binds

Question: How did the binding turn out when B12 was run?
Answer: binds

Question: B13 was tested. Which binding did it give?
Answer: binds

Question: How did the binding turn out when B14 was run?
Answer: binds

Question: B15 was tested. Which binding did it give?
Answer: binds

Question: With B16 as the binder, how does the binding read?
Answer: binds

Question: Which binding does the source give for B17 here?
Answer: binds

Question: B18 was tested. Which binding did it give?
Answer: binds

Question: With B19 as the binder, how does the binding read?
Answer: binds

Question: B20 was tested. Which binding did it give?
Answer: binds
